Results taken from publication PMC9410877.
Results are given in words; binding and its absence hold for the method and conditions named. Binding seen in cells or lysates may run through a third protein. Here binding means that the protein was enriched with, or labelled near, the bait; the list need not be complete.

By UniProt entry, the sequences of proteins in these tests, tags left out.
UniProt Q3URK3: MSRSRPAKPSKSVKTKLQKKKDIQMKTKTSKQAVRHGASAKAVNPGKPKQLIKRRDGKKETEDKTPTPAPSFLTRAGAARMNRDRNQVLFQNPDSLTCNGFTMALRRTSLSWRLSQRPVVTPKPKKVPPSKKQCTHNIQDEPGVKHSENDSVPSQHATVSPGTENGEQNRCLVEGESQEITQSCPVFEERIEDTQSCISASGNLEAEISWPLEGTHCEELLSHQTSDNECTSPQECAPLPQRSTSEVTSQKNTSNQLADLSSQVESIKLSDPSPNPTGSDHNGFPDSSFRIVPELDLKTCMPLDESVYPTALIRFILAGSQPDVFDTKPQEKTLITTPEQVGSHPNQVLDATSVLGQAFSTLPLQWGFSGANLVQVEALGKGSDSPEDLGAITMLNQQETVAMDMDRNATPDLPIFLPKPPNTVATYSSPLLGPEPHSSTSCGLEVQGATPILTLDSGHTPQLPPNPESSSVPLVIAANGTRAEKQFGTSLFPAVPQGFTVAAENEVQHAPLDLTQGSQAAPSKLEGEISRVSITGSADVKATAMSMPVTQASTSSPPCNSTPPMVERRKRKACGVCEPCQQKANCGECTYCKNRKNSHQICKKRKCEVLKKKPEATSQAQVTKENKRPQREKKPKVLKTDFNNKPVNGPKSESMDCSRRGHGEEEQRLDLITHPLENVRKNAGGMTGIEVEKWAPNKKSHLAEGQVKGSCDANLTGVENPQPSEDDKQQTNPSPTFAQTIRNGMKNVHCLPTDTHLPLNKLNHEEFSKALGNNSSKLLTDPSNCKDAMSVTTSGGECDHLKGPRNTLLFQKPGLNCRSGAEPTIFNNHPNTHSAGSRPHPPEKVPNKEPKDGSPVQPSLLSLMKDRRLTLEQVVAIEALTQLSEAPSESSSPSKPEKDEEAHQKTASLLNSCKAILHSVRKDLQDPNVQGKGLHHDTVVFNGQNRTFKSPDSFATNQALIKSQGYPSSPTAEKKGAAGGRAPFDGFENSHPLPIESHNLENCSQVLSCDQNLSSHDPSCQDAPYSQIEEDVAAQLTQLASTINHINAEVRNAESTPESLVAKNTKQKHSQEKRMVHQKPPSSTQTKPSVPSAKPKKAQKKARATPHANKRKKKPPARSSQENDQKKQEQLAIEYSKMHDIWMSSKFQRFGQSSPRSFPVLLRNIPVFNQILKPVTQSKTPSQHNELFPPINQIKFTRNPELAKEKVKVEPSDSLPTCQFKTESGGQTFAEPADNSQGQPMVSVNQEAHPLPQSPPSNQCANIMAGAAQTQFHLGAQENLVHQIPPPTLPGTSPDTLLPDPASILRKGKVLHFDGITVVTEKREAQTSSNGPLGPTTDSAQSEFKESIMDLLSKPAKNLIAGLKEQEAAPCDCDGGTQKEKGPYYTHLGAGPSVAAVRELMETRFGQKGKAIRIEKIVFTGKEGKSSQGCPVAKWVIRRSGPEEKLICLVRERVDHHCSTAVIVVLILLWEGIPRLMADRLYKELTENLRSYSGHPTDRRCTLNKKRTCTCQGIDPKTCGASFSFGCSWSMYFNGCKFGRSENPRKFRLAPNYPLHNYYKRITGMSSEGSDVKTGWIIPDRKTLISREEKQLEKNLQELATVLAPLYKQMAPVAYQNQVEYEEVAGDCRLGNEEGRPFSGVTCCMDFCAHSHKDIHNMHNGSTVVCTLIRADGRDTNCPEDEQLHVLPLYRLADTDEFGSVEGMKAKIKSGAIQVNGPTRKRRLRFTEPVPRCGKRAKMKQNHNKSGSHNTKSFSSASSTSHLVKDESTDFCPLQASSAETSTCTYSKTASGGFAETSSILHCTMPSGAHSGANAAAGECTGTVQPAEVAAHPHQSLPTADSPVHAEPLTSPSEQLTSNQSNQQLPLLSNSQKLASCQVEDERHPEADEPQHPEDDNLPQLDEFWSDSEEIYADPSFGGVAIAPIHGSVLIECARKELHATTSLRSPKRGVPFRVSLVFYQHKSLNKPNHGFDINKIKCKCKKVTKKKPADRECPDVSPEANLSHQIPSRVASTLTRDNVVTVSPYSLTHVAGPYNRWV

Molecular target: TET1 (ten-eleven translocation 1) (mouse (endogenous in mESCs)) (UniProt Q3URK3)
Assay: affinity purification with mass spectrometry; ChIP-MS of TET1: WT and Tet1 KO mESCs (Serum LIF), triplicates, crosslinked with 1% paraformaldehyde, chromatin sheared by sonication (no MNase), anti-TET1 antibody (09-872-I, Sigma-Aldrich) overnight at 4°C, protein A/G beads, two low salt (140 mM NaCl), one high salt (500 mM NaCl) and two TBS washes, on-bead trypsin digestion, LC-MS/MS, MaxLFQ; t-test, FDR 5%, log2 fold change cut-off 1

binding	Binder
binds	SMARCAD1 (protein, UniProt Q04692 1-1021) MNLFNLDRFRFEKRSKIEEAPEAAPQPSQARPSSPISLSAEEENAEGEGSRANTPDSDVTEKTEDSSVPEPPDNERKASLSCFQNQRAIQEYIDLSSDTEDVSPNCSSTVQEKKFSKDTVIIVSEPSEDEESHDLPSVTRRNDSSELEDLSELEDLKDAKLQTLKELFPQRSDSDLLKLIESTSTMDGAIAAALLMFGDAGGGPRKRKLSSSSEEDDVNDDQSVKQPRGDRGEESNESAEASSNWEKQESIVLKLQKEFPNFDKQELREVLKEHEWMYTEALESLKVFAEDQDVQCASQSEVTNGKEVARNQNYSKNATKIKMKQKISVKPQNGFNKKRKKNVFNPKKAVEDSEYDSGSDAGSSLDEDYSSCEEVMEDGYKGKILHFLQVSSIAELTLIPKCSQKKAQKITELRPFNNWEALFTKMSKINGLSEDLIWNCKTVIQERDVVIRLMNKCEDISNKLTKQVTMLTGNGGGWNREQPSLLNQSLSLKPYQKVGLNWLALVHKHGLNGILADEMGLGKTIQAIAFLAYLFQEGNKGPHLIVVPASTIDNWLREVNLWCPSLNVLCYYGSQEERKQIRFNIHNKYEDYNVIVTTYNCAISSSDDRSLFRRLKLNYAIFDEGHMLKNMGSIRYQHLMTINARNRLLLTGTPVQNNLLELMSLLNFVMPHMFSSSTSEIRRMFSSKTKPADEQSIYEKERIAHAKQIIKPFILRRVKEEVLKLLPPKKDRIELCAMSEKQEQLYSGLFNRLKKSINNLEKNTEMCNVMMQLRKMANHPLLHRQYYTPEKLKEMSQLMLKEPTHCEANPDLIFEDMEVMTDFELHVLCKQYQHINSYQLDMDLILDSGKFRALGCILSELKQKGDRVVLFSQFTMMLDILEVLLKHHQHRYLRLDGKTQISERIHLIDEFNTDMDIFVFLLSTKAGGLGINLTSANVVILHDIDCNPYNDKQAEDRCHRVGQTKEVLVIKLISQGTIEESMLKINQQKLKLEQDMTTVDEADEGSMPADIATLLKTSMGL
binds	MORC3 (protein, UniProt F7BJB9 1-942) MAAQPPTGIRLSALCPKFLHTNSTSHTWPFSAVAELIDNAYDPDVNAKQIWIDKTVISDHICLTFTDNGNGMTADKLHKMLSFGFSDKVTMNGHVPVGLYGNGFKSGSMRLGKDAMVFTKNGETMSVGFLSQTYLEVIKAEHVVVPIVTFNKHRQMINLTESKASLAAILEHSLFSTEQKLLAELNAIMGKKGTRIIIWNLRSYKNATEFDFEKDKYDIRIPEDLDETAGRKGYKKQERMDQIAPESDYSLRAYCSILYLKPRMQIIIRGQKVKTQLVSKSLAYIERDVYRPKFLTRTVRITFGFNCRNKDHYGIMMYHKNRLIKAYEKVGCQLKANNMGVGVVGIIECNFLKPTHNKQDFDYTNEYRLTILALGEKLNDYWNEMKVKKNAEYPVNLPVEDIQKRPDQTWVQCDACLKWRKLPDGIDQLPEKWYCSNNPDPQFRNCEVPEEPEDEDLVHPTYEKTYKKTSKERFRIRQPEILPRILPQINPELLYQTSVSSQSFSPVKESVPRPHLSEVTSPFAARIINLNLASPASEPENSSMKRKLGVHSSILNAKTRRLSNPPVENSSYKNDDDEDVIILEENSTPKPAVDLEVKSDIEVKSEQSHTEQSGIHVDLVSSPKPCVQASSTSTSTSRSDPGITVSTQTDAPGLTVKKEESMEEDMGVRNGTATLSCVGTEAKVQETSAESVDATSHQLQELRSELLVVTQERDDYKRQCQMFTDQIQVLQQRLLEMNDKCVKKEKCHQSTETDAVFLLDSVNGQAESLDHLGSQYQQALQEIERLKRQCSALQQVKSECSQASCTESKSEVDEMAVQLDDVFRQLDKCTIERDQYKNEVQLLEIEKSHIHSQCEELQTEVEQLKSTGQQAAADGSTASNAEEPVSYVDGESLKLRSLRVNVGQLLAMIVPDLDLQQVNYDVDVVDEILGQVVEQMSEISST
